{"source": "paper PMC10253026", "binders": {"B1": {"name": "Interleukin-4 cytokine (IL-4) (ligand, UniProt Q04745 25-133)", "chain": "HKCDITLQEIIKTLNILTARKNSCMELPVTDVFAAPENTTEKETFCRASTVLRHIYRHHTCMKSLLSGLDRNLSSMANMTCSVHEAKKSTLKDFLERLKTIMKEKYSKC"}}, "target": "T1, Interleukin-4 cytokine receptor (IL-4R) (pig (endogenous in mini-pig tissue)) (UniProt Q863Z5)", "T1 sequence": "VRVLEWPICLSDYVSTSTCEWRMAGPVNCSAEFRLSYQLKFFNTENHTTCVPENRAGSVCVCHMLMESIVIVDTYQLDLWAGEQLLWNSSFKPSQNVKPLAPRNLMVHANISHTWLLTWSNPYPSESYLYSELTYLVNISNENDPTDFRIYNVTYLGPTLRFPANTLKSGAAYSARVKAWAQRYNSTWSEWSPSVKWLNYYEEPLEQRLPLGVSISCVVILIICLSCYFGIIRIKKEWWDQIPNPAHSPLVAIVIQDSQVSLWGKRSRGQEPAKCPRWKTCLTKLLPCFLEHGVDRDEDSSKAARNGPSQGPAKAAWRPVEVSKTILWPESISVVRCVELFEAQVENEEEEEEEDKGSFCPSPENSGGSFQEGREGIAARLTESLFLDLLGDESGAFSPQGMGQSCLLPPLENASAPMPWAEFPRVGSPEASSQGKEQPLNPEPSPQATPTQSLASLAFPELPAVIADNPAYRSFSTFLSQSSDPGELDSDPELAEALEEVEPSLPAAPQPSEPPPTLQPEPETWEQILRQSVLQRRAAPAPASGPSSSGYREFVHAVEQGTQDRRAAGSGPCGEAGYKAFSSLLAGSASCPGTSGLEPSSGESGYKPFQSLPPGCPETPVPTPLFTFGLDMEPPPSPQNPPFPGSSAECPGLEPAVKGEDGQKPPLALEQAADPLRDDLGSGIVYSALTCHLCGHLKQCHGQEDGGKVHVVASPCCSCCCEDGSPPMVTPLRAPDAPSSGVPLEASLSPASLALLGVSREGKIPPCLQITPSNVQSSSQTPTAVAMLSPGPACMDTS", "test": "proximity ligation; in situ Duolink PLA (mouse/rabbit red kit) on 5 um paraffin sections of mini-pig skin (cut ear, day 2), lung (infected) and skeletal muscle (irradiated 50 Gy, day 76), wounded and healthy tissue; primary antibodies against cytokine and receptor overnight at 4 C; confocal microscopy", "note": "Results are given in words; binding and its absence hold for the method and conditions named. In cells and extracts the contact can be indirect. Some binding calls cover weakened binding; strength is not graded here."}
{"binder": "B1", "values": [{"measurement": "binding", "result": "binds"}]}
